Results are given in words; binding and its absence hold for the method and conditions named. Binding seen in cells or lysates may run through a third protein. Some binding calls cover weakened binding; strength is not graded here.
What was measured:
[1] = molecular target: human PADI4 stably expressed in mouse ES cells (hPADI4-stable) (human) (UniProt Q9UM07); test: pull-down; cellular hPADI4 isolated from lysate of hPADI4-stable mES cells by its ligand bio-PADI4_7 on streptavidin beads; partners detected by immunoblot
[2] = molecular target: human PADI4 stably expressed in E14 mouse embryonic stem cells (hPADI4-stable) (human) (UniProt Q9UM07); test: pull-down; PADI4 isolated through bio-PADI4_7 on streptavidin beads from lysate of hPADI4-stable mES cells; associated proteins detected by immunoblot (Fig. S16B)

Protein sequences, listed by entry. Tags and fused reporters are not part of them.
UniProt Q9UM07: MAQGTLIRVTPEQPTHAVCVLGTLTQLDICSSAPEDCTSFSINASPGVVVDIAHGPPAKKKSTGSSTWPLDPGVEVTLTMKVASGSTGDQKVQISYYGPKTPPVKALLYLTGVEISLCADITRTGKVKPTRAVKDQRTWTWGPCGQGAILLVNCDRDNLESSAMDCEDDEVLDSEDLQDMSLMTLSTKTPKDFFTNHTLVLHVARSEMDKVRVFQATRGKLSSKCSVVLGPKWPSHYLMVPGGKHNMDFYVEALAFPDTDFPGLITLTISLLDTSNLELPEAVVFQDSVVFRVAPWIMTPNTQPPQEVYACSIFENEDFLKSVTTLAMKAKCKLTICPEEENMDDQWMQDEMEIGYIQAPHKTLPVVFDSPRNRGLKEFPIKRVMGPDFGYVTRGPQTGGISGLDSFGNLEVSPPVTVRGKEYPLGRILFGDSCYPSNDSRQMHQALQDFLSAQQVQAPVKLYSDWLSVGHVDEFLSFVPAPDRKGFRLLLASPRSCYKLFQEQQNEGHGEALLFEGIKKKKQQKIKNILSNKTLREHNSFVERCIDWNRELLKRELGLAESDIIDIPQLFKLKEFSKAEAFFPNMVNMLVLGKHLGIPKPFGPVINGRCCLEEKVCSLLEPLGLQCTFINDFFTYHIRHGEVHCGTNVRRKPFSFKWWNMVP

- binding [1]: binds
- binding [2]: binds
B1: Bcr (protein, UniProt Q6PAJ1 1-1270)
chain: MVDSVGFAEAWRAQFPDSEPPRMELRSVGDIEQELERCKASIRRLEQEVNQERFRMIYLQTLLAKEKKSYDRQRWGFRRAAQPPDGAAEPRASAPRPPPAPADGADPAPVEESEARPDGEGSPSKGRSASARRPAAAASADRDDRGPPTSVAALRSNFEKIRKGPAQPGSADAEKPFYVNVEFHHERGLVKVNDKEVSDRISSLGSQAMQMERKKSQQSAGQGLGEAPRPHYRGRSSESSCGLDGDYEDAELNPRFLKDNLINANGGNRPPWPPLEYQPYQSIYVGGMMVEGEGKSPLLRSQSTSEQEKRLTWPRRSYSPRSFEDSGGGYTPDCSSNENLTSSEEDFSSGQSSRVSPSPTTYRMFRDKSRSPSQNSQQSFDSSSPPTPQCQKRHRQCQVVVSEATIVGVRKTGQIWPSDGDSTFQGEADSSFGTPPGYGCAADQAEEQRRHQDGLPYIDDSPSSSPHLSSKGRGSLASGALDPTKVSELDLEKGLEMRKWVLSGILASEETYLSHLEALLLPMKPLKAAATTSQPVLTSQQIETIFFKVPELYEIHKEFYDGLFPRVQQWSHQQRVGDLFQKLASQLGVYRAFVDNYGVAMETAEKCCQANAQFAEISENLRARSNKDVKDSTTKNSLETLLYKPVDRVTRSTLVLHDLLKHTPSSHPDHSLLQDALRISQNFLSSINEEITPRRQSMTVKKGEHRQLLKDSFMVELVEGARKLRHIFLFTDLLLCTKLKKQSGGKTQQYDCKWYIPLTDLSFQMVDELEALPNIPLVPDEELDALKIKISQIKSDIQREKRANKGSKVMERLRKKLSEQESLLLLMSPSMAFRVHSRNGKSYTFLISSDYERAEWRESIREQQKKCFKSFSLTSVELQMLTNSCVKLQTVHHIPLTINKEDDESPGLYGFLHVIVHSATGFKQSSNLYCTLEVDSFGYFVNKAKTRVYRDTTEPNWNEEFEIELEGSQTLRILCYEKCYNKMKMTKEDGESADKLMGKGQVQLDPQTLQDRDWQRTVIDMNGIEVKLSVKFTSREFSLKRMPSRKQTGVFGVKIAVVTKRERSKVPYIVRQCVEEIERRGMEEVGIYRVSGVATDIQALKAAFDVNNKDVSVMMSEMDVNAIAGTLKLYFRELPEPLFTDEFYPNFAEGIALSDPVAKESCMLNLLLSLPEANLLTFLFLLDHLKRVAEKETVNKMSLHNLATVFGPTLLRPSEKESKLPANPSQPITMTDSWSLEVMSQVQVLLYFLQLEAIPAPDSKRQSILFSTEV
